Some of these results come from one statement about several compounds together.
These molecules were tested against T1, serotonin 5-HT3 receptor (Rattus norvegicus, UniProt P35563) (assay: 5-HT3 antagonism (stated in words; determinable by the binding assay and the Bezold-Jarisch reflex)). Conditions: statement in words, no data given.
T1 construct: pentameric channel, A subunit dominant in brain
T1 sequence (P35563 24-483): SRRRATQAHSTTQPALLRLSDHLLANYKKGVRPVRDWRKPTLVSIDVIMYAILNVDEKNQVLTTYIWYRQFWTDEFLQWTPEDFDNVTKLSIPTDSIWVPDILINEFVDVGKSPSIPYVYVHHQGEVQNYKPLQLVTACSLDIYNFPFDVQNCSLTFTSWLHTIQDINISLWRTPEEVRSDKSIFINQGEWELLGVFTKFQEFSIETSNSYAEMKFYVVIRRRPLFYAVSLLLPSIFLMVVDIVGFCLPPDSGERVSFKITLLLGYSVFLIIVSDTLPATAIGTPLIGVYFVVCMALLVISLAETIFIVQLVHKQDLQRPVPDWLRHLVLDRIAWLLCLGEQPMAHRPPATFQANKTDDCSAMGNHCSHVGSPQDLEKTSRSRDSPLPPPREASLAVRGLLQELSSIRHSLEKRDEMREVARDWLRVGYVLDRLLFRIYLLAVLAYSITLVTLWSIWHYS
In the case of O=C(NCC12CCCN1CCC2)c1cn2ccccc2n1 [Example 7, N-(tetrahydro-1H-pyrrolizin-7a(5H)-ylmethyl)imidazo [1,2-a]pyridine-2-carboxamide], the 5-HT3 antagonism is reported as “antagonists of the serotonin 5-HT3 receptor”.
In the case of O=C(NCC12CCCN1CCC2)c1cc(Cl)cn2ccnc12 [Example 1], the 5-HT3 antagonism is reported as “antagonists of the serotonin 5-HT3 receptor”.
CCc1nc(C(=O)NCC23CCCN2CCC3)c2ccccn12 [Example 5, 3-ethyl-N-(tetrahydro-1H-pyrrolizin-7a(5H)-ylmethyl)imidazo [1,2-a]pyridine-1-carboxamide] was tested, and the 5-HT3 antagonism was “antagonists of the serotonin 5-HT3 receptor”.
In the case of CCc1cc(C(=O)NC23CC4CN(CC4C2)C3)c2ccccn12 [Example 4, 3-ethyl-N-(tetrahydro-2,5β-methano-1H-3aα,6aα-cyclopenta [c]pyrrol-5(3H)-yl)indolizine-1-carboxamide], the 5-HT3 antagonism is reported as “antagonists of the serotonin 5-HT3 receptor”.
In the case of CCc1nc(C(=O)NC23CC4CN(CC4C2)C3)c2ccccn12 [Example 6, 3-ethyl-N-(tetrahydro-2,5β-methano-1H-3aα,6aα-cyclopenta [c]pyrrol-5(3H)-yl)imidazo[1,5a]pyridine-1-carboxamide], the 5-HT3 antagonism is reported as “antagonists of the serotonin 5-HT3 receptor”.
With O=C(NC12CC3CN(CC3C1)C2)c1cc(Cl)cn2ccnc12 [Example 2] the 5-HT3 antagonism was “antagonists of the serotonin 5-HT3 receptor”.
In the case of O=C(NC12CC3CN(CC3C1)C2)c1cn2ccccc2n1 [Example 8, N-(tetrahydro-2,5β-methano-1H-3aα,6aα-cyclopenta [c]pyrrol-5(3H)-yl)imidazo[1,2-a]pyridine-2-carboxamide], the 5-HT3 antagonism is reported as “antagonists of the serotonin 5-HT3 receptor”.
In the case of CCc1cc(C(=O)NCC23CCCN2CCC3)c2ccccn12 [Example 3, 3-ethyl-N-(tetrahydro-1H-pyrrolizin-7a(5H)-ylmethyl) indolizine-1-carboxamide], the 5-HT3 antagonism is reported as “antagonists of the serotonin 5-HT3 receptor”.

Source: US5196547A, “Meso-azacyclic amides of imidazopyridine carboxylic acids and analogs thereof” (G. D. Searle & Co., priority 1992, dated 1993)
